Assay results reported in article PMC5862502, “Coordinated regulation of Arabidopsis microRNA biogenesis and red light signaling through Dicer-like 1 and phytochrome-interacting factor 4”.
These are yes or no findings as the source states them, for the method shown. In cells and extracts the contact can be indirect. Some results given as binding are weak or reduced against the parent protein; the word gives no strength. Sequences can lack the tags named with a protein.

Sequences of proteins named here, by UniProt entry; tags and fusion partners are left off.
UniProt Q9SP32: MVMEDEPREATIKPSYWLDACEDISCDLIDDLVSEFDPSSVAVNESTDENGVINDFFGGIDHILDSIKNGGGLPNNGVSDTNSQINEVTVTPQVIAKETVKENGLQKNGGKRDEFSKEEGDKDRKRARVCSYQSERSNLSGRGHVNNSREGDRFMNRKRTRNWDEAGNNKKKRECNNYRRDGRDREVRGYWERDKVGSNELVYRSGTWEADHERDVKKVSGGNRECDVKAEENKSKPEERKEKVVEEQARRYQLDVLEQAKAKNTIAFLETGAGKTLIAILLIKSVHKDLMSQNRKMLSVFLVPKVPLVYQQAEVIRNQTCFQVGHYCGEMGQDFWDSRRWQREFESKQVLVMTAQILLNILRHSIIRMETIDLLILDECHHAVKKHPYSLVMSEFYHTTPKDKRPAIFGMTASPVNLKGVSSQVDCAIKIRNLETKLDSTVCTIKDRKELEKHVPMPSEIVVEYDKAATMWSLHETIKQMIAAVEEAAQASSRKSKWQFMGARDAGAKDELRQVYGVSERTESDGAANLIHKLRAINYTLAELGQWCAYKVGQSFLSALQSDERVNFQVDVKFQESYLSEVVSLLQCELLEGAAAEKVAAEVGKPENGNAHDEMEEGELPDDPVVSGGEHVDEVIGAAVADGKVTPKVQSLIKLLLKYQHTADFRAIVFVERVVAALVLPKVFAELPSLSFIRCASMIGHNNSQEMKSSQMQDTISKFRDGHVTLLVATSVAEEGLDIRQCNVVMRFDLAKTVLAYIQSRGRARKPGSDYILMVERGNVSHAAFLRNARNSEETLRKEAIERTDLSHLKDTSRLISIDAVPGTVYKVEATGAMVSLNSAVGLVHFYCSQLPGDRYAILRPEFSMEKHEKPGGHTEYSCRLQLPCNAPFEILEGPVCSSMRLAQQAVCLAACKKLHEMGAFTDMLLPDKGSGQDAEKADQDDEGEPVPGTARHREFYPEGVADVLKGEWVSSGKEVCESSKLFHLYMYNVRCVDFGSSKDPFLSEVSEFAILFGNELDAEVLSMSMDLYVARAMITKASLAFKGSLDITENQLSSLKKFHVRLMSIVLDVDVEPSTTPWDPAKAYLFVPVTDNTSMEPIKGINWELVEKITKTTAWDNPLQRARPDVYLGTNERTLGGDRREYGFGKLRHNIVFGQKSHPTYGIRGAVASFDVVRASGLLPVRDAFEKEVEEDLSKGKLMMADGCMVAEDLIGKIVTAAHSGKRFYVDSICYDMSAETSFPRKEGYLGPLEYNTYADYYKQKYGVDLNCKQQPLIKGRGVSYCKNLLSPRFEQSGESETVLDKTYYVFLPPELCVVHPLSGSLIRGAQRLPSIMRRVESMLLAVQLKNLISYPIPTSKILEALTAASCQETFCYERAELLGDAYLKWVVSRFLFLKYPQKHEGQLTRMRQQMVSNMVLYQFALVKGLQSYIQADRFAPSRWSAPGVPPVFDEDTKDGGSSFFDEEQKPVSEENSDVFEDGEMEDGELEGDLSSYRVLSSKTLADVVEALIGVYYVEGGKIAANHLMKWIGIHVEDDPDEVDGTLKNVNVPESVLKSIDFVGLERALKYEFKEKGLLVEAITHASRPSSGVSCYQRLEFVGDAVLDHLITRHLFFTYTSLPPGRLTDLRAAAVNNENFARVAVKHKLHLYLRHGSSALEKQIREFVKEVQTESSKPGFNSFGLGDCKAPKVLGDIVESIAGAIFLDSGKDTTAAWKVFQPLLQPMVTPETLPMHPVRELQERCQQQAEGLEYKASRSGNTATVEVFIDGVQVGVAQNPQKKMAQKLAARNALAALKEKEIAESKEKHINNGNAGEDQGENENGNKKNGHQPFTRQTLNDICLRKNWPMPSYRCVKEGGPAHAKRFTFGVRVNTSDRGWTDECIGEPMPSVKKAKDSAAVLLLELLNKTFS

T1: PIF4-HA (pPIF4::PIF4-HA) (Arabidopsis) (UniProt Q8W2F3)
T1 sequence: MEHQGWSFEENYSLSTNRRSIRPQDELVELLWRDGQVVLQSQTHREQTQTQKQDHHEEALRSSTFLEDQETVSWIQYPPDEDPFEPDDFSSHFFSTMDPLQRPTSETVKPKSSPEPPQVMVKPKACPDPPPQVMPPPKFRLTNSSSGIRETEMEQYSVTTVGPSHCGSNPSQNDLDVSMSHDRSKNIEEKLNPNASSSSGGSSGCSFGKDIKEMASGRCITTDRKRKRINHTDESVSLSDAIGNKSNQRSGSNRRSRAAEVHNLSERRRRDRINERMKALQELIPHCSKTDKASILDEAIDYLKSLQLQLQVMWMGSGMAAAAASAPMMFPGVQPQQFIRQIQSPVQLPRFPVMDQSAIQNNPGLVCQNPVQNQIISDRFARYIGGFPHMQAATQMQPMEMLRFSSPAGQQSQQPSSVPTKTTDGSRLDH


Tests used:
[1] = molecular target: T1, PIF4-HA (pPIF4::PIF4-HA) (Arabidopsis); test: co-IP; extracts of 4-day-old transgenic Arabidopsis seedlings (pPIF4::PIF4-HA and pDCL1::DCL1-YFP); anti-HA agarose; blots with anti-HA and anti-GFP
[2] = molecular target: DCL1 fused to the N-terminal fragment of YFP (YFPN) (Arabidopsis) (UniProt Q9SP32); test: split reporter; BiFC with YFPN and YFPC fusions, transient in tobacco leaf epidermal cells; imaged 48 h after co-inoculation

binding [2]	Molecule	binding [1]
–	DCL1-YFP (pDCL1::DCL1-YFP) (from UniProt Q9SP32 1-1909) (enzyme)	binds
no binding	N-terminal fragment of PIF4 (PIF4-N), BiFC fusion (domain or fragment, UniProt Q8W2F3 1-254) MEHQGWSFEENYSLSTNRRSIRPQDELVELLWRDGQVVLQSQTHREQTQTQKQDHHEEALRSSTFLEDQETVSWIQYPPDEDPFEPDDFSSHFFSTMDPLQRPTSETVKPKSSPEPPQVMVKPKACPDPPPQVMPPPKFRLTNSSSGIRETEMEQYSVTTVGPSHCGSNPSQNDLDVSMSHDRSKNIEEKLNPNASSSSGGSSGCSFGKDIKEMASGRCITTDRKRKRINHTDESVSLSDAIGNKSNQRSGSNR	–
binds	C-terminal fragment of PIF4 (PIF4-C), BiFC fusion (domain or fragment, UniProt Q8W2F3 255-430) RSRAAEVHNLSERRRRDRINERMKALQELIPHCSKTDKASILDEAIDYLKSLQLQLQVMWMGSGMAAAAASAPMMFPGVQPQQFIRQIQSPVQLPRFPVMDQSAIQNNPGLVCQNPVQNQIISDRFARYIGGFPHMQAATQMQPMEMLRFSSPAGQQSQQPSSVPTKTTDGSRLDH	–
